No constants are given. Whether binding was seen depends on the method and setting. Binding seen in cells or lysates may run through a third protein. A result given as binding can be weak or reduced; the word gives no strength. Where a sequence is shown, tags or fusion partners need not be part of it.
What follows are substances tested against T1, (Myc)-MKP7, full-length (human) (UniProt Q9BY84) (assay: co-IP; HEK293T co-transfected with Myc-MKP7 full-length and HA-JNK1 (wild type or mutants), unstimulated; immunoprecipitation with anti-Myc, blot for HA).
T1 sequence: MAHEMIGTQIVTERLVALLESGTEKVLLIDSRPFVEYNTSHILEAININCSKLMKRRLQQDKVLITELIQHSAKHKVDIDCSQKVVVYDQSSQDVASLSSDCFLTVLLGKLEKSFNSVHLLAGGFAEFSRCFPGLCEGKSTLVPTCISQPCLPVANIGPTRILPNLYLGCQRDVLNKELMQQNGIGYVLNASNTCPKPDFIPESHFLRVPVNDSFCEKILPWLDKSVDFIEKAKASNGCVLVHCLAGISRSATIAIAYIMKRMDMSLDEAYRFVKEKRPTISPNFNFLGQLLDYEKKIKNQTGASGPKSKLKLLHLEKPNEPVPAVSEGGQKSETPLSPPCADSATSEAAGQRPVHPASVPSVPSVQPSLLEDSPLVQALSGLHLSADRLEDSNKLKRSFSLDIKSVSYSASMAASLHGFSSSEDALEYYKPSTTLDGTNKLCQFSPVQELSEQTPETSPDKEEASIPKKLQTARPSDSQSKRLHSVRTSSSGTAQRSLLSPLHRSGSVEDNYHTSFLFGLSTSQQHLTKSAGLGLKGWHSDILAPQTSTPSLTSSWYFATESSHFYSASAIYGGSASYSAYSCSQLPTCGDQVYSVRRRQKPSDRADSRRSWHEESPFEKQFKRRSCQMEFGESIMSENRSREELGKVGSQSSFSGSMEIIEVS

Substance | binding
(HA)-JNK1 D229A (human) (enzyme) | no binding
(HA)-JNK1 I231D (human) (enzyme) | binds
(HA)-JNK1 Y259D (human) (enzyme) | no binding
(HA)-JNK1, wild type (human) (enzyme) | binds
(HA)-JNK1 W234D (human) (enzyme) | no binding

Source: PMC4802042
